Results are given in words; binding and its absence hold for the method and conditions named.
What was measured:
[1] = molecular target: T1, Cxxc5 (mouse) (UniProt Q91WA4); experiment: fluorescent three hybrid assay (F3H); BHK cells with a lac operator array cotransfected with GBP-lacI, GFP-bait and Ch-prey; the bait is anchored to the array and colocalization of the prey at the array is scored; cells fixed and imaged 16 h after transfection
T1 sequence: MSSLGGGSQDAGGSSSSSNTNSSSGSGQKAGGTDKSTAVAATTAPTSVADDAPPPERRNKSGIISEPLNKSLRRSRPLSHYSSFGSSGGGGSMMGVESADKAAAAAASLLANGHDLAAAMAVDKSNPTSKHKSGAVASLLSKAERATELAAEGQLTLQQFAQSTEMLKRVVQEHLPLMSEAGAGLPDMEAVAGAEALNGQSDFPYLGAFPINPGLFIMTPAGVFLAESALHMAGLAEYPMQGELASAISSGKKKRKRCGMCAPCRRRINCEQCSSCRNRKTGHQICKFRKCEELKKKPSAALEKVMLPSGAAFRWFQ

Protein sequences, listed by entry. Tags and fused reporters are not part of them.
UniProt Q3URK3: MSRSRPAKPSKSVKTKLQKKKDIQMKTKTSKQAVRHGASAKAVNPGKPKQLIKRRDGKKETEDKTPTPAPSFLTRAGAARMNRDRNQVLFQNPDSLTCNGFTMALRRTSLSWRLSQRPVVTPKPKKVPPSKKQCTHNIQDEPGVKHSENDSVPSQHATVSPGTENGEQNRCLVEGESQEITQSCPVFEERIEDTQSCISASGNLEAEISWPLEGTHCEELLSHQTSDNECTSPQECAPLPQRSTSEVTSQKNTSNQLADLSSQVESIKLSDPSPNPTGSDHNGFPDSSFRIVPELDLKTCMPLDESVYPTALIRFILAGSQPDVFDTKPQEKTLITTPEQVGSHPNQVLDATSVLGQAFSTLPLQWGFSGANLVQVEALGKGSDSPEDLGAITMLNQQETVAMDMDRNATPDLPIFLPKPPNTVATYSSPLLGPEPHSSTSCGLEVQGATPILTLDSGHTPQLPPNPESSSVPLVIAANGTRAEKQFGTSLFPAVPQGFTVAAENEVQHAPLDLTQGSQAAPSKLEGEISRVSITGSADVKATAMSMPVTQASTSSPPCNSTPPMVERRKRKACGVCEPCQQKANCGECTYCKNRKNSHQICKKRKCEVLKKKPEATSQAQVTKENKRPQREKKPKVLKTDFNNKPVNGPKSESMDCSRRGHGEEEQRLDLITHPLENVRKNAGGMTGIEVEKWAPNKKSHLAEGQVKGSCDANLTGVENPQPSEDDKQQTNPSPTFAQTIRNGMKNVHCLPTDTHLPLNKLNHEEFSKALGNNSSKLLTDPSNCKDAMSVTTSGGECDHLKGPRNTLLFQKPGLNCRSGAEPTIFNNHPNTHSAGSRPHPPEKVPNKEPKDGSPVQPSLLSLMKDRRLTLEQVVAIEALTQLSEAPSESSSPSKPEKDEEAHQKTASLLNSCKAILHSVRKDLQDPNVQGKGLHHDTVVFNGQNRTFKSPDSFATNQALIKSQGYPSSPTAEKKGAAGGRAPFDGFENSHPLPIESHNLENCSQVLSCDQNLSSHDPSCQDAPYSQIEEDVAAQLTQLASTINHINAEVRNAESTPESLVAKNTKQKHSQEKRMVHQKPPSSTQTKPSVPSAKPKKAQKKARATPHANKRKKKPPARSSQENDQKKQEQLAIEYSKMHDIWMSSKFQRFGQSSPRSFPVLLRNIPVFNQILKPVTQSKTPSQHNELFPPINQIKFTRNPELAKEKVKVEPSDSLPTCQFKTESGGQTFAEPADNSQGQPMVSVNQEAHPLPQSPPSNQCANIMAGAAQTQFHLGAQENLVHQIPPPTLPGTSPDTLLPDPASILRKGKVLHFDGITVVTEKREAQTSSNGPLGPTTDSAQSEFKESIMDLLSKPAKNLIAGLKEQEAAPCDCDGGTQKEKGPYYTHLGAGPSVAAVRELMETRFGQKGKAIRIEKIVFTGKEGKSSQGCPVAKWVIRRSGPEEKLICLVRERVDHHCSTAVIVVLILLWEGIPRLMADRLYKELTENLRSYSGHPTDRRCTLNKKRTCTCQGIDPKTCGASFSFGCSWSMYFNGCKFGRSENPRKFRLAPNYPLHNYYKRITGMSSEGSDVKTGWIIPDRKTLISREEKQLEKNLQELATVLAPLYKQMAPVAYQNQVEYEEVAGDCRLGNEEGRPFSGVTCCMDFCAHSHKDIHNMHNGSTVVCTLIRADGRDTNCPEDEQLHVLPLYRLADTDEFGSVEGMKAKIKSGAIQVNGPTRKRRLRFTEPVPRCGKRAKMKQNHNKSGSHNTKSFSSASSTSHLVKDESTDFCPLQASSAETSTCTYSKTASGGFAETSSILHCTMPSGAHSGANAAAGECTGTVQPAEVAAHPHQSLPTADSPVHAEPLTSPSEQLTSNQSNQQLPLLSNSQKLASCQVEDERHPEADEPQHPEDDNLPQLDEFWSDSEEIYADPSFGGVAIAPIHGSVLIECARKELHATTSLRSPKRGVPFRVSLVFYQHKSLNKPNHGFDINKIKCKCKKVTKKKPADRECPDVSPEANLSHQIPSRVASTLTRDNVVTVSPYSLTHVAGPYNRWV

[2] = molecular target: T2, Cxxc4 (mouse) (UniProt Q6NXI8); experiment: as above
T2 sequence: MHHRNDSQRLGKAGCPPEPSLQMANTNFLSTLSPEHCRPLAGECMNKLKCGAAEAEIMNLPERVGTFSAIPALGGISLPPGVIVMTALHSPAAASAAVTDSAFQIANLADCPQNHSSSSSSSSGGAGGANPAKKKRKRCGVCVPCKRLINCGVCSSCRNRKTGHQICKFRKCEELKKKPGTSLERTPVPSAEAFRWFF

binding [1]: no binding
binding [2]: no binding
Substance: Tet1 (from UniProt Q3URK3 1-2039) (enzyme)

Source: article PMC3653909
